{
  "source": "the supplement of paper PMC8104966",
  "note": "Where a name gives a salt, the structure may show the parent alone. This is one part of the list. Single values are uncertain here, since repeats match poorly.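 U2OS cells carrying ACE2 were mixed with U2OS cells carrying full-length spike, and fusion was scored by imaging as the share of nuclei showing both cell types' fluorescent markers. A compound counts as an inhibitory hit when it is non-toxic and its fusion z-score falls below -3, meaning more than three standard deviations below the plate's DMSO wells.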",
  "data": [
    {"system": "U2OS ACE2 x SARS-CoV-2 spike co-culture", "assay": "cell-cell fusion (fraction fused) z-score vs plate DMSO control; higher = more fusion", "details": "30 µM; 5 h; toxicity class: non-toxic, passed QC", "values": [
      {"smiles": "COc1cc(OC)c2c(c1Cl)OC1(C2=O)C(O)=CC(=O)CC1C", "note": "(stereo not drawn)", "cell-cell fusion (z-score)": "inactive: 2.05"},
      {"smiles": "Cc1cc(O)ccc1Cl", "cell-cell fusion (z-score)": "inactive: 0.679"},
      {"smiles": "O[C@H]1[C@H](O)[C@@H](O)[C@H](O)[C@@H](O)[C@H]1O", "cell-cell fusion (z-score)": "inactive: 1.73"},
      {"smiles": "CN(C)CCC[C@@]1(c2ccc(F)cc2)OCc2cc(C#N)ccc21.O=C(O)C(=O)O", "cell-cell fusion (z-score)": "inactive: 1.99"},
      {"smiles": "O=C(c1cc(Cc2n[nH]c(=O)c3ccccc23)ccc1F)N1CCN(C(=O)C2CC2)CC1", "note": "[Olaparib]", "cell-cell fusion (z-score)": "inactive: 2.09"},
      {"smiles": "C=CC(=O)Nc1cccc(Oc2nc(Nc3ccc(N4CCN(C)CC4)cc3OC)ncc2Cl)c1", "cell-cell fusion (z-score)": "inactive: 0.861"},
      {"smiles": "CC1=C2C[C@@H]3[C@@H](CC=C4C[C@@H](O)CC[C@@]43C)[C@@H]2CC[C@@]12O[C@@H]1C[C@H](C)CN[C@H]1[C@@H]2C", "note": "[Cyclopamine]", "cell-cell fusion (z-score)": "inactive: 0.785"},
      {"smiles": "C[C@@H]1CC[C@@]2(OC1)OC1CC3C4CC=C5C[C@@H](O)CC[C@]5(C)C4CC[C@]3(C)C1[C@@H]2C", "note": "(stereo partly drawn)", "cell-cell fusion (z-score)": "inactive: 1.75"},
      {"smiles": "CC1(C)C2CC(=O)[C@]3(C)C(CC[C@@]4(C)[C@H](c5ccoc5)OC(=O)C5OC543)[C@@]2(C)[C@@H](O)C[C@H]1O", "note": "(stereo partly drawn)", "cell-cell fusion (z-score)": "inactive: 3.12"},
      {"smiles": "CC1=C(C(=O)Nc2cc3cn[nH]c3cc2F)C(c2ccc(C(F)(F)F)cc2)CC(=O)N1", "note": "(stereo not drawn)", "cell-cell fusion (z-score)": "inactive: 1.86"},
      {"smiles": "CC(Cc1cccc(C(F)(F)F)c1)NCCOC(=O)c1ccccc1.Cl", "note": "(stereo not drawn)", "cell-cell fusion (z-score)": "inactive: 3.49"},
      {"smiles": "O=C([O-])[C@H](O)[C@@H](O)[C@H](O)[C@H](O)CO.[Na+]", "note": "[Sodium gluconate]", "cell-cell fusion (z-score)": "inactive: 2.89"},
      {"smiles": "CSc1ccc(C(=O)c2[nH]c(=O)[nH]c2C)cc1", "note": "[Enoximone]", "cell-cell fusion (z-score)": "inactive: 2.18"},
      {"smiles": "O=c1c(O)c(-c2ccccc2)oc2ccccc12", "cell-cell fusion (z-score)": "inactive: 0.413"},
      {"smiles": "Sc1nc2ccccc2s1", "cell-cell fusion (z-score)": "inactive: 1.75"},
      {"smiles": "CCN1C(=O)C=CC1=O", "note": "[N-Ethylmaleimide]", "cell-cell fusion (z-score)": "inactive: 1.42"},
      {"smiles": "C[C@]12CCC(=O)C[C@@H]1CC[C@@H]1[C@@H]2CC[C@]2(C)C(=O)CC[C@@H]12", "note": "[5alpha-ANDROSTAN-3,17-DIONE]", "cell-cell fusion (z-score)": "inactive: 1.88"},
      {"smiles": "Cc1ccc2c(Cl)cc(Cl)c(O)c2n1", "cell-cell fusion (z-score)": "inactive: 1.15"},
      {"smiles": "Cl.N=C(N)NC(=O)c1nc(Cl)c(N)nc1N.O.O", "note": "[Amiloride hydrochloride dihydrate]", "cell-cell fusion (z-score)": "inactive: 2.14"},
      {"smiles": "C=CC(C1=CC(=O)C(OC)=CC1=O)c1ccc(O)cc1", "note": "(stereo not drawn)", "cell-cell fusion (z-score)": "inactive: 1.82"},
      {"smiles": "O=C(N/N=C/c1ccc([N+](=O)[O-])o1)c1ccc(O)cc1", "cell-cell fusion (z-score)": "inactive: -0.595"},
      {"smiles": "COC(=O)/C=C/C(=O)OC", "note": "[Dimethyl fumarate]", "cell-cell fusion (z-score)": "inactive: 0.829"},
      {"smiles": "COc1cc(N)c(Cl)cc1C(=O)N[C@@H]1CCN(CCCOc2ccc(F)cc2)C[C@@H]1OC", "note": "[Cisapride]", "cell-cell fusion (z-score)": "inactive: 1.36"},
      {"smiles": "CO/N=C1/C[C@]2(C[C@@H]3C[C@@H](C/C=C(\\C)C[C@@H](C)/C=C/C=C4\\CO[C@H]5[C@H](O)C(C)=C[C@@H](C(=O)O3)[C@]45O)O2)O[C@H](/C(C)=C/C(C)C)[C@H]1C", "note": "[Moxidectin]", "cell-cell fusion (z-score)": "active: -5.74"},
      {"smiles": "CCCCCCCCCCCCCCC[C@H](O)[C@H](N)CO", "note": "(racemic) [DL-erythro-Dihydrosphingosine]", "cell-cell fusion (z-score)": "inactive: 3.11"},
      {"smiles": "CC1CC[C@@]23CC[C@]4(C)[C@@](CCC5[C@@]6(C)CCC(=O)C(C)(C)C6CC[C@]54C)(OC2=O)C3C1C", "note": "(stereo partly drawn)", "cell-cell fusion (z-score)": "inactive: 1.86"},
      {"smiles": "CC(=O)Oc1cccc(C(=O)O)c1OC(C)=O", "cell-cell fusion (z-score)": "inactive: -1.06"},
      {"smiles": "Br.Cc1cccc(C2CN(C)CCc3c2cc(O)c(O)c3Cl)c1", "note": "(stereo not drawn)", "cell-cell fusion (z-score)": "inactive: -2.35"},
      {"smiles": "CN1CCC(=C2c3ccccc3CC(=O)c3sccc32)CC1.O=C(O)/C=C/C(=O)O", "note": "[Ketotifen fumarate]", "cell-cell fusion (z-score)": "inactive: 2.73"},
      {"smiles": "C[C@]12CC[C@@H]3c4ccc(O)cc4CC[C@H]3[C@@H]1CC[C@@H]2O", "note": "[beta-Estradiol]", "cell-cell fusion (z-score)": "inactive: 3.37"},
      {"smiles": "Cc1ccc(C(=O)c2ccc(CC(=O)O)n2C)cc1", "note": "[Tolmetin]", "cell-cell fusion (z-score)": "inactive: -0.174"},
      {"smiles": "CNC[C@H](O)c1cccc(O)c1.Cl", "cell-cell fusion (z-score)": "inactive: -1.91"},
      {"smiles": "Cl.Cl.NCCNCCNCCN", "cell-cell fusion (z-score)": "inactive: 0.735"},
      {"smiles": "CC1=C(CC(=O)O)c2cc(F)ccc2/C1=C\\c1ccc(S(C)(=O)=O)cc1", "note": "[Sulindac sulfone]", "cell-cell fusion (z-score)": "inactive: 1.26"},
      {"smiles": "CC(C)CCCC(C)C1CCC2C3=CC[C@H]4C[C@@H](O)CC[C@]4(C)C3CC[C@@]21C", "note": "(stereo partly drawn)", "cell-cell fusion (z-score)": "inactive: 2.32"},
      {"smiles": "CCN(CC)C(=O)/C(C#N)=C/c1cc(O)c(O)c([N+](=O)[O-])c1", "note": "[Entacapone]", "cell-cell fusion (z-score)": "inactive: 2.29"},
      {"smiles": "CCS(=O)(=O)Nc1cccc(C(=C2CCCCC2)c2cnc[nH]2)c1", "cell-cell fusion (z-score)": "inactive: 0.622"},
      {"smiles": "CC(=O)C1CCC2C3CC=C4CC(OS(=O)(=O)[O-])CC[C@]4(C)C3CC[C@]12C.[Na+]", "note": "(stereo partly drawn)", "cell-cell fusion (z-score)": "inactive: 2.74"}
    ]}
  ]
}
